Experimental data from the supplement of paper PMC5949888.
± gives the standard deviation of the averaged measurements. Most values lie at the floor of the assay. Slopes are relative: functional sequences can read slightly below zero.

System: Saccharomyces cerevisiae PS128 hsf1 delta, HSF1(1-493) fusion
Assay: growth estimate (transactivation domain function in HSF1 fusion, heat-shock survival) (a.u. (slope of normalised read count over time)); higher = stronger growth at 37°C, i.e. more transactivation activity
Details: library: random library
Protocol: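 Random 60-nt DNA library encoding peptides of up to 20 aa, fused to the C-terminus of yeast HSF1 residues 1-493 (C-terminal TAD deleted) and expressed from the native HSF1 promoter on a CEN plasmid in hsf1-deleted S. cerevisiae PS128. Cells were selected at 37°C on -trp 5-FOA plates for 0, 2, 4, 6 and 8 days and amplicons were sequenced. Growth estimate is the slope of a robust linear fit of total-sum-normalised read counts (normalised to the first time point) over time, using at least 2 replicates. Sequences are classed functional (TAD activity) above a threshold of -0.13, set from stop-codon control sequences.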

Row | Substance | growth estimate
1 | RLSLSFNTRQLPGRLTIP | < -0.25
2 | HRILSACLAWNVSSFLAVLL | < -0.25
3 | GIGLSIHLPVRTFSRCWSRF | < -0.25
4 | GSVPEFPRGFLLRSDLLFLR | < -0.25
5 | ASRREKFKNLLRRGSASFCG | < -0.25
6 | VLLCETGVQHAQFCQSGGCE | < -0.25
7 | LQWGELRSRKGLNRSGHHVR | < -0.25
8 | SETGTD | < -0.25
9 | IPG | < -0.25
10 | DLRRMQTVGQSWAHAFGTWL | -0.246
11 | VTGLGVQVSVHTYSGVVHGG | < -0.25
12 | RRPSRKMVSAQGSTVNCRPP | < -0.25
13 | SGIFISLMTVNVNGSFPEGG | < -0.25
14 | QLARSEQPNHTVASLQSSAN | < -0.25
15 | GVWRWFIKGSNNDYYLETTA | -0.217
16 | FWSEKALLPVRGFDAALGGL | < -0.25
17 | SKPGMSICGGAMFYSDE | < -0.25
18 | VVGTLWVFEVQTLRLGVCPR | < -0.25
19 | LPLPGN | < -0.25
20 | SVSIRGWNSTCISTVRSGIA | < -0.25
21 | QIMALVEAGVH | < -0.25
22 | LLSA | < -0.25
23 | ARFGSEPWV | < -0.25
24 | SPALSLSNLRLRDLSVRRDA | < -0.25

Row | Substance | growth estimate
25 | FAASAKTAPYCNGFAHCVSV | < -0.25
26 | TVAD | < -0.25
27 | PYQKG | < -0.25
28 | LRVWNYCPDRPAKRY | < -0.25
29 | LKGSQPISPRCGCTQWGRVA | < -0.25
30 | NTRRPSSLAKKGTTRVLGHN | < -0.25
31 | CVVGEDNFVNVNLWGSHNAF | < -0.25
32 | TILCLTVKRLTAPSCYSHE | < -0.25
33 | RAMFGSMPPGIRLDR | < -0.25
34 | RKWLRGRGVVPPIVFE | < -0.25
35 | GRLTVCY | < -0.25
36 | TNTYKELLDRVSRTTCRVSL | < -0.25
37 | PALGGLLTLVERRMPYPERI | -0.246
38 | AQRAARTTYDEPVQHRGTGR | < -0.25
39 | WHKHSNSADGA | < -0.25
40 | LWITEDGSALGSHRFTSQRR | < -0.25
41 | RDHRTGESSWV | < -0.25
42 | GSNMYTSFHH | < -0.25
43 | VRKWYVSKDFPSVVENYFLR | < -0.25
44 | ADADLLMC | < -0.25
45 | RNGS | < -0.25
46 | VGSTWPFPVNLHYQWGKTQV | < -0.25
47 | CLDPGLWSPGTVTHSSSWVV | < -0.25
48 | PSMGFTKECR | < -0.25

Row | Substance | growth estimate
49 | RETADQPCSPECYI | < -0.25
50 | GPGQYPTF | < -0.25
51 | FDQ | < -0.25
52 | SAG | < -0.25
53 | SRRLWD | < -0.25
54 | VRLIPGGIQAGTGRAG | < -0.25
55 | VEPGDVGRRVTSVLSIEITY | < -0.25
56 | SVSG | < -0.25
57 | TVFGGVTLENFLDLH | 0.649
58 | VRVT | -0.239 ± 0.015
59 | GMRVGSGPMWG | < -0.25
60 | NDRLDRCVSFTTECPTLILD | < -0.25
61 | SFILTADRGG | < -0.25
62 | TEKRPV | < -0.25
63 | REALKFSAHKQWHRGCECFG | < -0.25
64 | ASACWETYRS | -0.153
65 | PAEVSFNSQAEFSPREGT | < -0.25
66 | QWRSSVIMFSEVMHSVPQCA | < -0.25
67 | LTYRERGDMR | < -0.25
68 | VHGNDPAA | < -0.25
69 | TSCCRLDSQASMGRGGPNRG | < -0.25
70 | DNAGFGGI | < -0.25
71 | VTRTVYWFWGSKQTRRPERR | < -0.25
72 | PCVRGNCSPLKRMTTLSV | -0.246

Nothing new here: an excerpt of the list.
Row | Substance | growth estimate
17 | SKPGMSICGGAMFYSDE | < -0.25
18 | VVGTLWVFEVQTLRLGVCPR | < -0.25
19 | LPLPGN | < -0.25
20 | SVSIRGWNSTCISTVRSGIA | < -0.25
21 | QIMALVEAGVH | < -0.25

Next part.

Row | Substance | growth estimate
73 | WNVICSGVGFFERTSGSPVK | < -0.25
74 | VWGN | < -0.25
75 | TVLHVSW | < -0.25
76 | IIGRVVLAMQGKLRIAGLFV | < -0.25
77 | TMSHGLIRCMDYFARVVLLR | -0.246
78 | FGDYASG | < -0.25
79 | SVCLHTDVLQPP | < -0.25
80 | DIDAVGSL | < -0.25
81 | ISGRGVSILGVGLARMLPAV | < -0.25
82 | GGQSSSVQ | < -0.25
83 | TVRGYMTTHRFVVNEVDGAL | < -0.25
84 | RLHS | < -0.25
85 | QSRANGTNKGQLGLQIRTRQ | < -0.25
86 | PMQR | < -0.25
87 | ITCK | < -0.25
88 | HIASDGKVQRRMSNDCLRLR | < -0.25
89 | LPVGAV | < -0.25
90 | ESRSSNRSCCMVRADWDDIG | < -0.25
91 | LGTYVVCTL | < -0.25
92 | RCVMNLRRGTVRNAHGVINR | < -0.25
93 | RVAEDAVKLQSIQRFTSIGT | < -0.25
94 | VRHRSQDPVYVEAGGDGDLS | < -0.25
95 | PKCTLTSVVNKLN | < -0.25
96 | RMDSTRFHRVVKWGPAMGEM | < -0.25

Row | Substance | growth estimate
97 | RSFAV | < -0.25
98 | VRDGVREAVRGIWCCIRSWI | < -0.25
99 | NARAGSSPVAGRGCSYFVAR | < -0.25
100 | WIGRSLPYSQRYATDFFPRA | < -0.25
101 | DGQAWQAAAVSSRT | < -0.25
102 | SPSMIAGAGLDRRIIHCRHI | < -0.25
103 | GIEVQ | < -0.25
104 | LMSQLNFPVDCPIVEQDRTR | < -0.25
105 | DYASGWEHTDVCATRCG | < -0.25
106 | AGRSAHKTVILEKDLARVRL | -0.145
107 | VKSRPDSIVRGMAVDEV | -0.245
108 | LLQKTP | < -0.25
109 | AGSKSAESEACGI | < -0.25
110 | RGNICSLNV | < -0.25
111 | LRSS | < -0.25
112 | FMWFRHS | < -0.25
113 | WILAHGSIYARLRVAPGIGR | < -0.25
114 | KQMDYEGSTTRMRTLRSVYV | < -0.25
115 | WQQPVDASPEEEESIPWSDR | < -0.25
116 | TVRRKDRVSFARGDKPSPFG | < -0.25
117 | RVTRYHFYGARDSSFPINWR | < -0.25
118 | GPGQFINGK | < -0.25
119 | LQIGYFKQR | < -0.25
120 | KRGGVPGGPYILT | < -0.25

Row | Substance | growth estimate
121 | SSCTQRRETGWAAAIEKRLS | < -0.25
122 | YRSELSKHAGRPMPNWAPRL | < -0.25
123 | TDVDGGKWHWGGVAPTWR | < -0.25
124 | IAGYLVSWEEPTATTTSVSM | < -0.25
125 | VPAKGSQKRIVVVVRRHTAL | < -0.25
126 | LWC | -0.216
127 | RDNSVQLHK | < -0.25
128 | RKKE | < -0.25
129 | FITR | < -0.25
130 | QYLRAQE | < -0.25
131 | NYAHIRSRSYRSERSTIFTA | < -0.25
132 | KAQLIGAIHRVGNASPSASG | < -0.25
133 | GCSRHFFLGCGPVGFKVVEV | < -0.25
134 | DCTVDPNTQARANASDWWQD | < -0.25
135 | GRMLLGRVLSAFADAQERSW | < -0.25
136 | EVGMGQLIRPVNL | < -0.25
137 | WDATVEYFDSVT | -0.0633
138 | TPGWRLRLMR | < -0.25
139 | GRLGQQRSLGSTHASPFGPG | < -0.25
140 | YFTSSPNEITLPLLSLSARV | < -0.25
141 | RSGFISYPQDSDWVPGFSIY | -0.169
142 | EFGDRGNLETITFQGCVRTK | < -0.25
143 | PNCGFRRRGFLRSQWRRSYD | < -0.25
144 | VYFDCWFNLFVQWQVAQLLS | < -0.25

Row | Substance | growth estimate
145 | VNVEIGLSYYPNKLNKTYYS | < -0.25
146 | TIYRRCTGPHGCA | < -0.25
147 | QAGRNEVNRTL | < -0.25
148 | TWETICLETGVLEAEVRVPS | < -0.25
149 | EISLRDESLRYDSGD | < -0.25
150 | VGHLCGLTIRGKLCAVNKCR | < -0.25
151 | VARLYTAYGLLVLQGTGQLR | < -0.25
152 | CVRTKSGGGPLQARSINTVA | < -0.25
153 | WQFQWNDIWQ | < -0.25
154 | EDAINAGTRVFSAVQTHSRR | < -0.25
155 | CRGPRADWHNRGRPCLCCGL | < -0.25
156 | PRTWNDDPCAFRF | < -0.25
157 | ILFRLSGLV | < -0.25
158 | MKRLDEPRAHG | < -0.25
159 | LVDCIKSL | < -0.25
160 | LEERLNGSRQ | < -0.25
161 | GEQYQELTLKVSLHGISAAI | < -0.25
162 | GKL | < -0.25
163 | SLLKWLVVGF | < -0.25
164 | GRDR | < -0.25
165 | IRTGFPMS | < -0.25
166 | TEYEASQL | < -0.25
167 | PRAVGNHSRLKGKTRTSEVP | < -0.25
168 | SINVSSFIGAGLLSFDRFRL | < -0.25

Row | Substance | growth estimate
169 | PGLRSFRCWCQRLEIPVVR | < -0.25
170 | VKHRGRRDFARRSPGRGAL | < -0.25
171 | LVRFFSRLK | -0.231
172 | SLDQEPGTCSAS | < -0.25
173 | YFRF | -0.0679
174 | PPQQEATGHRVR | < -0.25
175 | ARQG | < -0.25
176 | AAIYRRRSSLRTDAFRLDLA | < -0.25
177 | ADVTLPHYLQ | < -0.25
178 | CGIIQFNDLLYS | 0.19
179 | HECDLVFTVRYCIRYTRLAA | < -0.25
180 | EIKSTYAIVSSAGDDKRVSA | < -0.25
181 | NKSLVETQRGTHVPCSSGKY | -0.246
182 | SPQRNDRPCSNAGHYRVICP | < -0.25
183 | CCVKMQ | < -0.25
184 | VWLVD | < -0.25
185 | DCDPWLRAMDSYGSWQSTSS | < -0.25
186 | GGSCGGVAQSLAEIPKTFPR | < -0.25
187 | AASKYEIGWHRVNALELCSS | < -0.25
188 | RLYRTDPTGGCIAEYLLRKR | < -0.25
189 | GGSLGEDVEVAIMGIAS | < -0.25
190 | TCTWEYPR | < -0.25
191 | AVGLWRPESS | < -0.25
